{
  "source": "paper PMC7792611",
  "about": "(International Journal of Molecular Sciences, 2020)",
  "assay": "In vivo microdialysis in the dorsolateral striatum with LC-MS",
  "details": "rat, measured simultaneously for comparison",
  "description": "Adult male Sprague–Dawley rats (Harlan, Indianapolis, IN, USA) weighing between 250 and 350 g were used for all experiments (n = 6). Rats were housed in a temperature and humidity-controlled room with 12 h light/dark cycles with food and water available ad libitum. All animals were treated as approved by the University of Michigan Unit for Laboratory Animal Medicine (Protocol: 08516; approval date: 4 April 2011) and in accordance with the National Institute of Health (NIH) Guidelines for the Care and Use of Laboratory Animals. The number of animals used, and their suffering were minimized.\nWe performed in vivo microdialysis in the rat DLS and applied LC-MS analytical techniques to quantify brain concentrations of the deltorphin analogue BBI-11008, following systemic treatment, and of endogenous leu-enkephalin levels both before and after treatment. These experiments were performed in awake, freely moving rats, implanted with microdialysis probes in the DLS 24 h prior to the experiments. The animals were fully recovered, their wounds healed, and the probes were fixed in place with dental cement. […]",
  "note": "“And” between values parts separate entries of the source, which are not always exact repeats. Equal values may be shown once.",
  "data": [
    {"substance": "leu-enkephalin", "values": [
      {"measurement": "endogenous leu-enkephalin concentration in dorsolateral striatum dialysate", "result": "> 20 pM and < 20 pM"}
    ]}
  ]
}
